Measurements published in article PMC4712141.

B1: endogenous P. berghei UIS2 (enzyme, UniProt A0A509AQ20 23-1322)
chain: ELINYNVILKYDVKDLFKRVLQEQNEDIKDDNDENDEGDEEDEYYSYLKNRGTNEFDKVKYKYAEYVRFSIFKSKNIYTHIFNELLVFLGAQYGTEEEIVVHVKLIDILSLLFTHYKDNLSKFGHILNSFQDRSKLMNSVENEFMNEFINERDNYIYDVKNAYNKSDNNDDEWIETVLNKKNMLYDKFLKEWRIDGSNFYSIHNKKKTYLPKKVFQNKQNYIPDFENMEHVDLVCKPISDSAIDEKSAEKYEDKELNINEQNEQSNSKKEQTGNDNVSETKMHKEESSDSSNKTDESNVCKSENKYIKKTNNNKKIKEERHGFIYKMRNDFFLSDASLNVISLINSITSNEENKIVKKLYTGLKKLKITTFDNLIRYTNIIGIFFSYDIFDELYLQIKLIKEYFGLIPRNNDELSIVSKSKNVSKIKVYGKYNITDDEMFVPPVCLSAYCKLRSVWMQNRDFNFKIEKYSSNSINFMTLGDIGRGFKKENSYDEEQMLKLIGFNELKSTSNAMKDWHASNNADFVINLGDNVPEVDELDYLKNFEWHKIMRELFTFRKQDEDEEKNDADSYSITKDNIQEFYKEVEKQMNNTNTDDKNQHNDISTTPINNYTDGNEGNNNSENNNGFREYINDNTKDYNIYKNETTEKEETYDSIPFFSIFGEKDYFYFPSEQIQEHYAKRIPGYFFPNNYYRINYDFVYNNKEKNGVQEKFKASFIFIDTWSLMIGFPIIRNYRSFREQFNWINKALLESAKESDWIFVVGHHPFISSGRRSDNYSFEELSFHNIIRNFFFYYNIDGYFSAHDNLMEYLNFGPLNLFVNGSSSRVLFDKSTILGRGYFGKMVGSIYPVTCYLLTTIHSALRPKGCDISKYSKWSNKYDIGFSAHKLSKDELVTEFINSRSGKPVSQKIVIKNKKDKRRKFYDLDGYTNDKIKQFENKIYEFSSKNPNFIKYKIEEFKENDKKLNIIMNNLKSEEEKDAFRSLMFLNNLIFGISSHISNISFDQLKLMCYLANKYRTFFNKKLIKFLGEELKIAVQKMEVKTTNETPHNSNEILNTNENESIQPNDPTMKVEQIMELIDTLGYKPDEFLEKYDAMTQEEKDALKEKLGNDVSLEDYLSKVKMYIHKKKLSAEELKEYEENEENIKIAEVPDESKEDDNTNSQPEDTIDQENKDDINDIINAPNEVHKNYKELVEKEKKLTENEHALLMLSSLKTYDEMKYSLNILSKKEVIKEEAHPYGLYYIEKHKTFFQVSLELCPDIKRIISNLGKVGTKLAFYDYINNLYNKIMDLKNSIDKIAIF
B2: endogenous P. berghei eIF2α-P (protein, UniProt A0A509AJP9 1-326)
chain: MGDARSKTDLGDCRFYEKKFPEVDDLIMVKVNRIEDMGAYVSILEYNDMEGMILMSELSKRRFRSVNKLIRVGRHEVVLVLRVDNQKGYIDLSKRRVSPKDIIKCEEHFSKSKKVHQTVRHVAQKHNMTVEELNRKVIWPLYKKYGHALDALKEATMNPDIIFKEMDISDAVKESLLSDIKLRLTPQALKLRGRIDVWCFGYEGIDAVKEALKKGKEISNNEVTINIKLIAPPQYVIVTSCHDKELGMQKIQEAMKVISDKIKEYKGGDFKQQGEILVIGGDDEKRLEELLDKHDGLSSDDEYSSDGDEDDSSNDDDNSSDEDDDD
modifications: phosphorylated (eIF2α-P; precipitated and detected with anti-eIF2α-P); serine 59

Key:
[1] = target: T1, endogenous P. berghei eIF2α-P (P. berghei (endogenous in blood stage parasites)); assay: co-IP; whole cell extracts of P. berghei blood stage parasites, immunoprecipitation with anti-eIF2α-P or anti-UIS2 antibodies, immunoblot; endogenous proteins
T1 sequence (chain, phosphorylated (eIF2α-P; precipitated and detected with anti-eIF2α-P); serine 59): B2 chain

[2] = target: T2, endogenous P. berghei UIS2 (P. berghei (endogenous in blood stage parasites)); assay: as above
T2 sequence: B1 chain

Binder	binding [1]	binding [2]
B1	binds	
B2		binds

No constants are given. Whether binding was seen depends on the method and setting. In cells and extracts the contact can be indirect. Binding calls can cover weak binding; strength is not graded here. Where a sequence is shown, tags or fusion partners need not be part of it.
